From article PMC10382596
These are yes or no findings as the source states them, for the method shown.

Molecular target: ORF4 (Se locus, from indica-derived NIL E9) (Oryza sativa ssp. indica (E9))
Test: two-hybrid; yeast two-hybrid system; bait and prey not told

binding: no binding
B1: ORF3 (Se locus, from indica-derived NIL E9) (protein, UniProt Q9SSW3 1-298)
chain: MAEEKESFEGQWAPSNVTEENLKEMVAHGVLPAKEIIGWRPACGEAFPSPDTHEVVVFSHFFYGGFALPTSKFFRGILNFYGISLHHLNPNSIVHIANFIHVCEAFLGIKPHFALFRRIFFLKPQPNKSKPCVVGGAGFQLRGTLSQKYFSMPFKTSNKGWHANWFYIQNPEPALPEYSCLPPVYQDTWNSLPIGDEAAQALELMDRMLKLKEQGLQGEQITRHFIKCRLAPIKERSRTAFEFDGKHDPNREEPDSLDFKIMKERMYKIFSNAIVVSYSHQLPVVPYNAFNPPPQVCI
